Experimental data taken from patent publication KR20220001106A.
Changes are numbered by the printed parent chain. Results are given in words; binding and its absence hold for the method and conditions named. Some entries that bind do so weakly or less than the wild type. One block for each binder: values may come before it.

Chains of the proteins cited; added tags and fusions are not shown. Lines headed by an entry give the natural chain unless they say otherwise; changes in a name come on top. A line that says so, or that is headed by a name, gives the form on record, which may keep a tag or linker. Residues count along the entry.
UniProt P55899: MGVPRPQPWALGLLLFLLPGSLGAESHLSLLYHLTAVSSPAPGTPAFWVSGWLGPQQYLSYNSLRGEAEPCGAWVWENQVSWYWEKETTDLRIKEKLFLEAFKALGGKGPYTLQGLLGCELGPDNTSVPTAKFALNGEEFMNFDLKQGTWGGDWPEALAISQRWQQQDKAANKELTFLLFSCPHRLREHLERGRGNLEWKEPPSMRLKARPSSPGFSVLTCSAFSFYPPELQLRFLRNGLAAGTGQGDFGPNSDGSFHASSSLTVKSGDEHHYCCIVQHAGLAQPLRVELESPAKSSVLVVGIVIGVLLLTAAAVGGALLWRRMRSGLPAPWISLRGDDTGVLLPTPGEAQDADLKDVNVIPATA
UniProt P12314, residues 16-288: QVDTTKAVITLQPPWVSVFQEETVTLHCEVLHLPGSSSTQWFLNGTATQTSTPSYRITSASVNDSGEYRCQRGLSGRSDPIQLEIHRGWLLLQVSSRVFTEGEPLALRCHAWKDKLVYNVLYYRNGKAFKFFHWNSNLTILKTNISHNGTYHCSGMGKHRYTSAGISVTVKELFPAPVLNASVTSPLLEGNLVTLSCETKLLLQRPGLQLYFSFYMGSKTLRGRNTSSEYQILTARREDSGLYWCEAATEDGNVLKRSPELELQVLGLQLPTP
hVEGF (P15692, form named): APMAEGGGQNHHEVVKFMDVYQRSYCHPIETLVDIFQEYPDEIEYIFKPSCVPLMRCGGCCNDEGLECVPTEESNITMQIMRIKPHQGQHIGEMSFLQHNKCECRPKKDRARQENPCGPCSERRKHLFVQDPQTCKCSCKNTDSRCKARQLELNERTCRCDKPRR

Key:
[1] = target: FcRn (R&D system, 8639-Fc) (UniProt P55899); assay: Octet BLI, antibody on FAB2G sensor, FcRn 400 nM as analyte, pH 6.0
[2] = target: FcγRⅠ (R&D system, 1257-Fc) (UniProt P12314); assay: Octet BLI, receptor on anti-penta-His sensor, antibody 100 nM as analyte
[3] = target: hVEGF (human) (UniProt P15692); assay: ELISA, hVEGF coated at 500 ng/ml, anti-hIgG-Fc HRP detection

- binding [1]: binds
- binding [2]: binds
B1: Hz2-F (antibody with SEQ ID NO 32 and SEQ ID NO 31) (antibody, human IgG1, L234A L235A, V domains shown)
VH: EVQLVESGGGLVQPGGSLRLSCAVSGIDLNRYSLTWIRQAPGKGLEWVAIVGGSGVTYYANWAKGRFTISRDDSKNTLYLQMNSLRAEDTAVYYCARGSDRSAYAPDIWGQGTLVTVSS
VL: DIQLTQSPSSLSASVGDRVTITCQSSQSIYSNNYLAWYQQKPGKAPKLLLYQASKLASGVPSRFSGSGSGTDFTLTISSLQPEDFATYYCLGVYDDDADNAFGQGTKVEIKR

- binding [3]: binds
B2: Hz1 (humanized antibody made with SEQ ID NO 28 and SEQ ID NO 29) (antibody, V domains shown)
VH: B1 VH with Q13K, V24A, I37V, A49G, D73S, S74A, T77S, Y94F, Q111P
VL: B1 VL with L4M, T22N, A45P, F85V, Q104G, K107E, V108L

- binding [3]: binds
B3: RIgG1 (rabbit antibody made with SEQ ID NO 24 and SEQ ID NO 25) (antibody, V domains shown)
VH: QSVEESGGRLVTPGTPLTLTCTVSGIDLNRYSLTWVRQAPGKGLEWIGIVGGSGVTYYANWTKGRFTISKTSTTVDLKMTSLTTEDTATYFCARGSDRSAYAPDIWGPGTLVTISS
VL: ELDMTQTPSSVSAAVGGTVTINCQSSQSVYSNNYLAWYQQKPGQPPKLLLYQASKLASGVSSRFSGSGSGTHFTLTISGVQCDDAATYYCLGVYDDDADNAFGGGTELEILR
